From publication PMC3305387
These are yes or no findings as the source states them, for the method shown. In cells and extracts the contact can be indirect. Here binding means that the protein was enriched with, or labelled near, the bait; the list need not be complete.

Sequences of proteins named here, by UniProt entry; tags and fusion partners are left off.
UniProt Q80U70: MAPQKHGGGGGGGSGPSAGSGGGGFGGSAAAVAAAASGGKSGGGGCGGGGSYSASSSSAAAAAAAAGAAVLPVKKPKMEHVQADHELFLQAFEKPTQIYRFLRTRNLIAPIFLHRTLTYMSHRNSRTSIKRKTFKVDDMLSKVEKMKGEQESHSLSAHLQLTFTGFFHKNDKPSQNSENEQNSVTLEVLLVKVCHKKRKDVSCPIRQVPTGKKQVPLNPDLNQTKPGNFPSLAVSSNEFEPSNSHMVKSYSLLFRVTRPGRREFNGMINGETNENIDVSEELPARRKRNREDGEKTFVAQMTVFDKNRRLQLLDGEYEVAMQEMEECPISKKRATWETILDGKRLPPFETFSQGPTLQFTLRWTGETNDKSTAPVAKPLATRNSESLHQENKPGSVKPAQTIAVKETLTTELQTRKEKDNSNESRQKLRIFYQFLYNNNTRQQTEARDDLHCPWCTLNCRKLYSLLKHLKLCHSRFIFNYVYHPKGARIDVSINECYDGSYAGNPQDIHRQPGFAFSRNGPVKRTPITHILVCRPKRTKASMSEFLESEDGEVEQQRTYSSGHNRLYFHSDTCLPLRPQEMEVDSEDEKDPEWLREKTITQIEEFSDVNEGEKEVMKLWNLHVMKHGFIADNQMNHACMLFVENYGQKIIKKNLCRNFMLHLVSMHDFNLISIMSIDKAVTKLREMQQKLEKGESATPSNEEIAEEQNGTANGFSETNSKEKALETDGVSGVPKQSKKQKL
UniProt Q02395: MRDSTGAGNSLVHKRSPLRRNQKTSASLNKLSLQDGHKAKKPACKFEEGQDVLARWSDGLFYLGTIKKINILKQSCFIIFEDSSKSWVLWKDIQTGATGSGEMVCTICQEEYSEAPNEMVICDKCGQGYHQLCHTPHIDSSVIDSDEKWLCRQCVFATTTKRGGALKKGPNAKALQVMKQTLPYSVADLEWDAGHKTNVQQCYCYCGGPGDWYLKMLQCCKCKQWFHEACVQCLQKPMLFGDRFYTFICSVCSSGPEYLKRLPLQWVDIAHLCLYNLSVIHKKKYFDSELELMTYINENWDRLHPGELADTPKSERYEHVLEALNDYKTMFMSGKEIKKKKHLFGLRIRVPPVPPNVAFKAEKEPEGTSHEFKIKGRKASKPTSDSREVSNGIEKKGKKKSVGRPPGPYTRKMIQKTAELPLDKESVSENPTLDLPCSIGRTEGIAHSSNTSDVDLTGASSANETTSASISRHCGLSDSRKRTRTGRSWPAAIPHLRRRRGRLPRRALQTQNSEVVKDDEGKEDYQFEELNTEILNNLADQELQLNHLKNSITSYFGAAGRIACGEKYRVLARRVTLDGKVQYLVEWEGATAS

Molecular target: Suz12-TAP (mouse) (UniProt Q80U70)
Test: affinity purification with mass spectrometry; Suz12-TAP tandem affinity purified from Suz12^Suz12TAP/+ ESCs; co-purified proteins identified by mass spectrometry

Pcl2 (from UniProt Q02395 1-593)
binding: binds
